Data from article PMC8672915.
These are yes or no findings as the source states them, for the method shown. Binding seen in cells or lysates may run through a third protein. Some results given as binding are weak or reduced against the parent protein; the word gives no strength. For some of these results: Where a sequence is shown, tags or fusion partners need not be part of it.

Protein sequences, listed by entry. Tags and fused reporters are not part of them.
UniProt Q7Z434: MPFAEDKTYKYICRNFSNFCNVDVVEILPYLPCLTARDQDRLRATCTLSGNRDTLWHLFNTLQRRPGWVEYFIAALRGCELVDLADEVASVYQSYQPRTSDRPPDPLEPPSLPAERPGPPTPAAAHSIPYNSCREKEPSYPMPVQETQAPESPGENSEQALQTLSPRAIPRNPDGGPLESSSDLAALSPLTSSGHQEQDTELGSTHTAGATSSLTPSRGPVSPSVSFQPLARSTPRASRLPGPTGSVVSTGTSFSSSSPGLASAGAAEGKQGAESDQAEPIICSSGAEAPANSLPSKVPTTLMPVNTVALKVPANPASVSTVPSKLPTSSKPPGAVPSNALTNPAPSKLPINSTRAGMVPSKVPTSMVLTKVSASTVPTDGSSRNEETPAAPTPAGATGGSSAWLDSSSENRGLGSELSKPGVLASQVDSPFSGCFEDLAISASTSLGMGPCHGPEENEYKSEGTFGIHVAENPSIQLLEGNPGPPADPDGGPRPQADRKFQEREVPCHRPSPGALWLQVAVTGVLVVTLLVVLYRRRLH
UniProt Q92918: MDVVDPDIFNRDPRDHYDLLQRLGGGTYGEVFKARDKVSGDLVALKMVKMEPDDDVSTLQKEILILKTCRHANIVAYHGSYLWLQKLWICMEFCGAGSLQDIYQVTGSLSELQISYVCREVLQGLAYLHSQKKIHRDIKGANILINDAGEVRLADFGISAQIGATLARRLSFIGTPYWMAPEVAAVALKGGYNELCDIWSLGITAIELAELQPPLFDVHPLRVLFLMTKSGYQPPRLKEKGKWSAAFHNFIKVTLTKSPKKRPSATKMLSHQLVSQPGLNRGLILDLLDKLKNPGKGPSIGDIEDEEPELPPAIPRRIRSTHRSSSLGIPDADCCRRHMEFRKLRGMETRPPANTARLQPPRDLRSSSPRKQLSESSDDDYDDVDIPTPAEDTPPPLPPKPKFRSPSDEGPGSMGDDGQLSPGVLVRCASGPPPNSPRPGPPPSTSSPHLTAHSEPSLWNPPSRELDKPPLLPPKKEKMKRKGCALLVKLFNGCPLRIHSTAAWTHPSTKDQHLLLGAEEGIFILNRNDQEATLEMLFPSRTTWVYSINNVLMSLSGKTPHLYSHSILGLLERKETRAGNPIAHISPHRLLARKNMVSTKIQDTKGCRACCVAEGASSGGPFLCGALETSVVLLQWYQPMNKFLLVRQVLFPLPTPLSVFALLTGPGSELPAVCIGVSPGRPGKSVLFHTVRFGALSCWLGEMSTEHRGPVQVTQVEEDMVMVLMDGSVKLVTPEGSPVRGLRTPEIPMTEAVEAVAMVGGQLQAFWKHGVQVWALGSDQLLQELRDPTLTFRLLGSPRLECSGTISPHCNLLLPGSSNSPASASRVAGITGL

Key:
Assay in all cases: co-IP; 293T cells co-transfected with tagged plasmids (8 μg each), in Fig. 7A treated with SeV or not for 10 h; Triton lysis buffer (1% Triton, 20 mM Tris-HCl pH 7.5, 150 mM NaCl, 1 mM EDTA); immunoprecipitated with anti-Flag and protein G/A-Sepharose overnight at 4°C; washed with lysis buffer containing 1 M NaCl; immunoblotting
[1] = target: T1, TBK1, human, Flag- or HA-tagged, expressed in 293T cells (human) (UniProt Q9UHD2)
T1 sequence: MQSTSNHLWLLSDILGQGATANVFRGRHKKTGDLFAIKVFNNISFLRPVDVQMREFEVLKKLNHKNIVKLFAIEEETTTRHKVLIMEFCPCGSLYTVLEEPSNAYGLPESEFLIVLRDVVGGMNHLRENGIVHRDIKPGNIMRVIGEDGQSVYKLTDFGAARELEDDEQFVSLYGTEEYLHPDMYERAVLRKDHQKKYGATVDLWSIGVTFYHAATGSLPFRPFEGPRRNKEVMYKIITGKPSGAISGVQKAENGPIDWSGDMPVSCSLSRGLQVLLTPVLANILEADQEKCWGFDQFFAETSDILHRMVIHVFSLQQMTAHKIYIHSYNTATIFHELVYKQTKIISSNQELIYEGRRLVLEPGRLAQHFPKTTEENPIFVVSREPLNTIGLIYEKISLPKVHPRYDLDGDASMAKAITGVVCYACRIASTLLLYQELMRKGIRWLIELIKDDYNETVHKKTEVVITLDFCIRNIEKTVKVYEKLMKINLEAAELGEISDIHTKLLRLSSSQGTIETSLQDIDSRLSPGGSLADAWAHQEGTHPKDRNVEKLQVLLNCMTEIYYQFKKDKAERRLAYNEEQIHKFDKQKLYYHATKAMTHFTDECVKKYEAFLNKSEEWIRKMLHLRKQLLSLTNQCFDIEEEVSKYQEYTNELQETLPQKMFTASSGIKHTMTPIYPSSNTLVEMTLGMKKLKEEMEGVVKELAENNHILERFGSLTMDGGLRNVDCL

[2] = target: T2, IκB kinase-ε (IKKε), human, Flag- or HA-tagged, expressed in 293T cells (human) (UniProt Q14164)
T2 sequence: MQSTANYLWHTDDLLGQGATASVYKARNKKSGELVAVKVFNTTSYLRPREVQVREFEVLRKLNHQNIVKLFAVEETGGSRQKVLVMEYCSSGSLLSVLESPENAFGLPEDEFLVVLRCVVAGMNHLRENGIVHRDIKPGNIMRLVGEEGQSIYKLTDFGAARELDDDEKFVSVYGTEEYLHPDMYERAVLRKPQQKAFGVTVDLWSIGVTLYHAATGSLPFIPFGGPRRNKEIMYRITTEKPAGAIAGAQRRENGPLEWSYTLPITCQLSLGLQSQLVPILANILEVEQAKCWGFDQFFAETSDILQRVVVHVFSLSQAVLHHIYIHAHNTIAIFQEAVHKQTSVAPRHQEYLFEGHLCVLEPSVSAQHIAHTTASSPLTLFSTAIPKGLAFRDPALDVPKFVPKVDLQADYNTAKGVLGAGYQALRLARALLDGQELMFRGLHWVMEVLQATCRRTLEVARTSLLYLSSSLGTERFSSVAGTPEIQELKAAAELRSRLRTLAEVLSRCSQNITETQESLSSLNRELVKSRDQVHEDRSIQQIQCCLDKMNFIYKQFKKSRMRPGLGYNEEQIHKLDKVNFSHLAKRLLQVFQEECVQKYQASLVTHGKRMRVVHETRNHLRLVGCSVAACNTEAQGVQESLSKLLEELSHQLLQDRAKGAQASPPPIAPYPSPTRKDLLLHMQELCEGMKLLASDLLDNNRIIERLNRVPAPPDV

[3] = target: MAVS, human, Flag- or HA-tagged, expressed in 293T cells (human) (UniProt Q7Z434)
[4] = target: T3, RIG-I, human, Flag- or HA-tagged, expressed in 293T cells (human) (UniProt O95786)
T3 sequence: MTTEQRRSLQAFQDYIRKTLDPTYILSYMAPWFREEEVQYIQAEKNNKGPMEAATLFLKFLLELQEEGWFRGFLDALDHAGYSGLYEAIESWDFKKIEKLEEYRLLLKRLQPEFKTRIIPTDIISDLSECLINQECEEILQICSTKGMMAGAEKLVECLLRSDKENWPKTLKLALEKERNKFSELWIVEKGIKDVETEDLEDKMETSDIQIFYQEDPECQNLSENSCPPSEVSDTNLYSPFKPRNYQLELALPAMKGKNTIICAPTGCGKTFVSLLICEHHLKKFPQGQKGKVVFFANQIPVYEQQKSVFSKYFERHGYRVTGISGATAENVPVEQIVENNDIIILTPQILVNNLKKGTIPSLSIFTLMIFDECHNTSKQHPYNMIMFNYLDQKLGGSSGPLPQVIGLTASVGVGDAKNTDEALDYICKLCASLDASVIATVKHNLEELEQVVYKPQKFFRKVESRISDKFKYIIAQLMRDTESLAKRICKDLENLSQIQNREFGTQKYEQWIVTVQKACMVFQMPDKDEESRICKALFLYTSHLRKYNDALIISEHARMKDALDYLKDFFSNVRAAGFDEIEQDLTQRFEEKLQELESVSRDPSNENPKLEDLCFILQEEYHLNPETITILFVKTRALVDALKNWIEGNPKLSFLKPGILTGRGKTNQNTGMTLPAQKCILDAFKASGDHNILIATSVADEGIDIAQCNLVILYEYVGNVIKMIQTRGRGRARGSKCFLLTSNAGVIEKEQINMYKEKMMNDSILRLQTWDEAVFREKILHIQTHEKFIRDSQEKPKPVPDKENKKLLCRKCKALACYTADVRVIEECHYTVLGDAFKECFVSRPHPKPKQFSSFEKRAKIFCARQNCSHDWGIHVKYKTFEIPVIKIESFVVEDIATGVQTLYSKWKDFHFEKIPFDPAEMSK

Measured: binding

MAP4K1, full-length human, Flag- or HA-tagged, expressed in 293T cells (co-immunoprecipitation of Fig. 1A) (from UniProt Q92918 1-833)
binds: all assays above
